Reference: patent US20240279298A1 (BEIJING TUO JIE BIOPHARMACEUTICAL CO. LTD., priority 2021, published 2024)
[ ]: non-standard residue; d: D form. Aib = CC(C)(N)C(=O)O

Assay: general procedure: Fmoc solid-phase peptide synthesis; Fmoc-L-Thr(tBu)-Wang resin (GL Biochem, loading capacity: 0.533 mmol/g); HCTU/4-methylmorpholine
Conditions: whole synthesis, analytical high-performance liquid chromatography and HPLC/mass spectrometry

| Substance | final HPLC purity [%] |
| --- | --- |
| H-HSQGTFTSDYSKYLDL[Aib]RAEDFVQWLEST-OH | 97.05 |
| H-HSQGTFTSDYSKYLDV[Aib]RAQEFVQWLEST-OH (SMILES CC(C)C[C@H](NC(=O)[C@H](Cc1c[nH]c2ccccc12)NC(=O)[C@H](CCC(N)=O)NC(=O)[C@@H](NC(=O)[C@H](Cc1ccccc1)NC(=O)[C@H](CCC(=O)O)NC(=O)[C@H](CCC(N)=O)NC(=O)[C@H](C)NC(=O)[C@H](CCCNC(=N)N)NC(=O)C(C)(C)NC(=O)[C@@H](NC(=O)[C@H](CC(=O)O)NC(=O)[C@H](CC(C)C)NC(=O)[C@H](Cc1ccc(O)cc1)NC(=O)[C@H](CCCCN)NC(=O)[C@H](CO)NC(=O)[C@H](Cc1ccc(O)cc1)NC(=O)[C@H](CC(=O)O)NC(=O)[C@H](CO)NC(=O)[C@@H](NC(=O)[C@H](Cc1ccccc1)NC(=O)[C@@H](NC(=O)CNC(=O)[C@H](CCC(N)=O)NC(=O)[C@H](CO)NC(=O)[C@@H](N)Cc1c[nH]cn1)[C@@H](C)O)[C@@H](C)O)C(C)C)C(C)C)C(=O)N[C@@H](CCC(=O)O)C(=O)N[C@@H](CO)C(=O)N[C@H](C(=O)O)[C@@H](C)O) | 86.97 |
| H-HSQGTFTSDYSKYLES[Aib]RAEDFVRWLEST-OH (SMILES CC(C)C[C@H](NC(=O)[C@H](Cc1ccc(O)cc1)NC(=O)[C@H](CCCCN)NC(=O)[C@H](CO)NC(=O)[C@H](Cc1ccc(O)cc1)NC(=O)[C@H](CC(=O)O)NC(=O)[C@H](CO)NC(=O)[C@@H](NC(=O)[C@H](Cc1ccccc1)NC(=O)[C@@H](NC(=O)CNC(=O)[C@H](CCC(N)=O)NC(=O)[C@H](CO)NC(=O)[C@@H](N)Cc1c[nH]cn1)[C@@H](C)O)[C@@H](C)O)C(=O)N[C@@H](CCC(=O)O)C(=O)N[C@@H](CO)C(=O)NC(C)(C)C(=O)N[C@@H](CCCNC(=N)N)C(=O)N[C@@H](C)C(=O)N[C@@H](CCC(=O)O)C(=O)N[C@@H](CC(=O)O)C(=O)N[C@@H](Cc1ccccc1)C(=O)N[C@H](C(=O)N[C@@H](CCCNC(=N)N)C(=O)N[C@@H](Cc1c[nH]c2ccccc12)C(=O)N[C@@H](CC(C)C)C(=O)N[C@@H](CCC(=O)O)C(=O)N[C@@H](CO)C(=O)N[C@H](C(=O)O)[C@@H](C)O)C(C)C) | 88.72 |
| H-HSQGTFTSDYSKYLES[Aib]RAQDFVEWLEET-OH | 97.04 |
| H-HSQGTFTSDYSKYLES[Aib]RAQDFVEWLLET-OH | 93.40 |
| H-HSQGTFTSDYSKYLES[Aib]RAQDFVQWLLET-OH | 97.01 |
| H-HSQGTFTSDYSKYLES[Aib]RAQDFVQWLLST-OH | 88.63 |
| H-HSQGTFTSDYSKYLES[Aib]RAQEFVQWLEST-OH | 93.59 |
